Reference: PubChem BioAssay AID720505 (Drosophila RNAi Screening Center, 2013)

Screen: 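Genes needed for store-operated calcium entry in fly cells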 (primary screen)
System: Drosophila S2R+ cells
Reagents: long dsRNA against Drosophila genes
Treatment: thapsigargin (2 µM) in calcium-free buffer to empty internal stores, then 2 mM calcium added back
Detection: 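Fluo-4 signal in 384-well plates read on a FLIPR after thapsigargin (2 µM, calcium-free) store depletion and 2 mM calcium add-back; unnormalised mean endpoint per well; screen run twice, selected wells retested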
Direction: calcium signal and retest calcium signal: higher = more calcium entry after store depletion
Rule for the call: 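About 1500 genes called as lowering calcium entry, by varying amounts, judged against per-plate control wells with STIM1 as positive and Rho1 as negative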
Meaning of the calls: active = called as lowering calcium entry; inactive = not called
The screen tested about 20,000 reagents; this is an unselected part of those with a known target gene and a result. In the full data, about 2,100 (10%) got an active call. 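Raw plate signals without normalisation; calls rest on control-based scores that were not deposited; replicate 2 separates called from uncalled poorly.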 Unmarked entries are inactive. The numbers tell different reagents against one gene apart. The record does not give: the amount of reagent, the time to read-out.

gene | reagent | calcium signal, replicate 1 | calcium signal, replicate 2 | retest calcium signal, replicate 1 | retest calcium signal, replicate 2
CG15358 | 1 | 74 | 128 | – | –
PolrMT | 1 | 104 | 222 | – | –
vers | 1 | 92.9 | 101 | – | –
vers | 2 | 105 | 186 | – | –
CG11737 | 1 | 143 | 186 | – | –
Antdh | 1 | 63.8 (active) | 126 | – | –
CG14423 | 1 | 105 | 138 | – | –
omd | 1 | 92.2 | 73.4 | – | –
Nf-YA | 1 | 41.8 (active) | 74 | – | –
Nf-YA | 2 | 120 | 181 | – | –
CG10459 | 1 | 103 | 166 | – | –
CG10459 | 2 | 95.2 | 214 | – | –
SIDL | 1 | 114 | 139 | – | –
CG2124 | 1 | 76.1 | 104 | – | –
Bet3 | 1 | 82 | 97.3 | – | –
Mur29B | 1 | 174 | 120 | – | –
Mur29B | 2 | 153 | 165 | – | –
RpL37-1 | 1 | 70.4 (active) | 123 | 7608 | 205
RpL37-1 | 2 | 66.3 | 124 | – | –
PH4alphaNE3 | 1 | 74 | 128 | – | –
CG17378 | 1 | 158 | 104 | – | –
stol | 1 | 110 | 169 | – | –
CG15337 | 1 | 317 | 146 | – | –
CG15337 | 2 | 107 | 149 | – | –
CG42542 | 1 | 148 | 137 | – | –
CG42542 | 2 | 79.8 | 151 | – | –
Ppn | 1 | 158 | 140 | – | –
CG14712 | 1 | 90.2 | 73.5 | – | –
Top3alpha | 1 | 137 | 95.8 | – | –
CG18234 | 1 | 66.8 | 148 | – | –
PK2-R2 | 1 | 114 | 187 | – | –
SAK | 1 | 102 | 191 | – | –
SAK | 2 | 115 | 145 | – | –
CG4372 | 1 | 181 | 99.2 | – | –

2 of these entries, reformatted.
gene,reagent,"calcium signal, replicate 1","calcium signal, replicate 2","retest calcium signal, replicate 1","retest calcium signal, replicate 2"
vers,1,92.9,101,,
vers,2,105,186,,
